No constants are given. Whether binding was seen depends on the method and setting. Binding seen in cells or lysates may run through a third protein. Some entries that bind do so weakly or less than the wild type.
Target: MECOM (EVI1) ORF expressed in 293T cells (UniProt Q03112)
Experiment: co-IP; 293T cells transfected with MECOM or PA2G4 ORF vectors, 48 hr after transfection, processed as the endogenous co-IP

Chains of the proteins cited; added tags and fusions are not shown. Lines headed by an entry give the natural chain unless they say otherwise; changes in a name come on top. A line that says so, or that is headed by a name, gives the form on record, which may keep a tag or linker.
MECOM (EVI1) ORF expressed in 293T cells (Q03112, form named): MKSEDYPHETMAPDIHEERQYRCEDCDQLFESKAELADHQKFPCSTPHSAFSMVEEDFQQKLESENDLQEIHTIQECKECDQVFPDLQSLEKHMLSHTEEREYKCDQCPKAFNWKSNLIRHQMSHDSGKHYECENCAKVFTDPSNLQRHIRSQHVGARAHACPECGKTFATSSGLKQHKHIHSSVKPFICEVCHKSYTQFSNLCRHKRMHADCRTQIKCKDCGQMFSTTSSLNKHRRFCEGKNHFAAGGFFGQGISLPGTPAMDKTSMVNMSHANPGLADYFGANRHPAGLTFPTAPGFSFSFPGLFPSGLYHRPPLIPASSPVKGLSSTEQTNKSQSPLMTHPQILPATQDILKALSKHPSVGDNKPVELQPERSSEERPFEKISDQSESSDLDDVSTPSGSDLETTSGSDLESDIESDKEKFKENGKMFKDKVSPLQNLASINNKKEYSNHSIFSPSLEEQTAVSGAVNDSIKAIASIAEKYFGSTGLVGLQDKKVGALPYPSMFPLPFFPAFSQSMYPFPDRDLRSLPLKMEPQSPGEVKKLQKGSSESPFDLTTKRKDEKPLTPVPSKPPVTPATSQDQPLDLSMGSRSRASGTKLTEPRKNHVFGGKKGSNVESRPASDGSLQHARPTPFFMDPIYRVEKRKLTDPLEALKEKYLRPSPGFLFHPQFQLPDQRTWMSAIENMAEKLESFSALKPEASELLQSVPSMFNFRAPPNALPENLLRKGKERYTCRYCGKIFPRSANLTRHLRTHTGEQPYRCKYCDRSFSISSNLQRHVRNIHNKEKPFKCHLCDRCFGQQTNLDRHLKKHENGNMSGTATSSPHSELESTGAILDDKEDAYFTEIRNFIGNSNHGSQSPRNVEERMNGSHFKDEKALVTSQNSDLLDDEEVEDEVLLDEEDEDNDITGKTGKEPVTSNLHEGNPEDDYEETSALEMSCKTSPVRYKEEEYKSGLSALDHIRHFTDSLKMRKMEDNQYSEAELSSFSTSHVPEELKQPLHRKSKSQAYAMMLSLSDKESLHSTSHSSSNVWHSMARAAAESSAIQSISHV

- binding: binds
B1: PA2G4 ORF expressed in 293T cells (protein, UniProt Q9UQ80 1-394)
chain: MSGEDEQQEQTIAEDLVVTKYKMGGDIANRVLRSLVEASSSGVSVLSLCEKGDAMIMEETGKIFKKEKEMKKGIAFPTSISVNNCVCHFSPLKSDQDYILKEGDLVKIDLGVHVDGFIANVAHTFVVDVAQGTQVTGRKADVIKAAHLCAEAALRLVKPGNQNTQVTEAWNKVAHSFNCTPIEGMLSHQLKQHVIDGEKTIIQNPTDQQKKDHEKAEFEVHEVYAVDVLVSSGEGKAKDAGQRTTIYKRDPSKQYGLKMKTSRAFFSEVERRFDAMPFTLRAFEDEKKARMGVVECAKHELLQPFNVLYEKEGEFVAQFKFTVLLMPNGPMRITSGPFEPDLYKSEMEVQDAELKALLQSSASRKTQKKKKKKASKTAENATSGETLEENEAGD
